No constants are given. Whether binding was seen depends on the method and setting. In cells and extracts the contact can be indirect. These calls come from enrichment with a bait or labelling near it, and not all partners need be listed.
B1: Mitogen-activated protein kinase kinase kinase 7 isoform A (protein, UniProt O43318-2 1-579)
chain: MSTASAASSSSSSSAGEMIEAPSQVLNFEEIDYKEIEVEEVVGRGAFGVVCKAKWRAKDVAIKQIESESERKAFIVELRQLSRVNHPNIVKLYGACLNPVCLVMEYAEGGSLYNVLHGAEPLPYYTAAHAMSWCLQCSQGVAYLHSMQPKALIHRDLKPPNLLLVAGGTVLKICDFGTACDIQTHMTNNKGSAAWMAPEVFEGSNYSEKCDVFSWGIILWEVITRRKPFDEIGGPAFRIMWAVHNGTRPPLIKNLPKPIESLMTRCWSKDPSQRPSMEEIVKIMTHLMRYFPGADEPLQYPCQYSDEGQSNSATSTGSFMDIASTNTSNKSDTNMEQVPATNDTIKRLESKLLKNQAKQQSESGRLSLGASRGSSVESLPPTSEGKRMSADMSEIEARIAATTGNGQPRRRSIQDLTVTGTEPGQVSSRSSSPSVRMITTSGPTSEKPTRSHPWTPDDSTDTNGSDNSIPMAYLTLDHQLQPLAPCPNSKESMAVFEQHCKMAQEYMKVQTEIALLLQRKQELVAELDQDEKDQQNTSRLVQEHKKLLDENKSLSTYYQQCKKQLEVIRSQQQKRQGTS
B2: Protein phosphatase 1B isoform 1 (protein, UniProt O75688 1-479)
chain: MGAFLDKPKTEKHNAHGAGNGLRYGLSSMQGWRVEMEDAHTAVVGIPHGLEDWSFFAVYDGHAGSRVANYCSTHLLEHITTNEDFRAAGKSGSALELSVENVKNGIRTGFLKIDEYMRNFSDLRNGMDRSGSTAVGVMISPKHIYFINCGDSRAVLYRNGQVCFSTQDHKPCNPREKERIQNAGGSVMIQRVNGSLAVSRALGDYDYKCVDGKGPTEQLVSPEPEVYEILRAEEDEFIILACDGIWDVMSNEELCEYVKSRLEVSDDLENVCNWVVDTCLHKGSRDNMSIVLVCFSNAPKVSDEAVKKDSELDKHLESRVEEIMEKSGEEGMPDLAHVMRILSAENIPNLPPGGGLAGKRNVIEAVYSRLNPHRESDGASDEAEESGSQGKLVEALRQMRINHRGNYRQLLEEMLTSYRLAKVEGEESPAEPAATATSSNSDAGNPVTMQESHTESESGLAELDSSNEDAGTKMSGEKI

Sequences of proteins named here, by UniProt entry; tags and fusion partners are left off. A change or cut given only in a name is not applied to a line headed by its entry. A line that says so, or that is headed by a name, gives the form on record, which may keep a tag or linker.
UniProt O14974: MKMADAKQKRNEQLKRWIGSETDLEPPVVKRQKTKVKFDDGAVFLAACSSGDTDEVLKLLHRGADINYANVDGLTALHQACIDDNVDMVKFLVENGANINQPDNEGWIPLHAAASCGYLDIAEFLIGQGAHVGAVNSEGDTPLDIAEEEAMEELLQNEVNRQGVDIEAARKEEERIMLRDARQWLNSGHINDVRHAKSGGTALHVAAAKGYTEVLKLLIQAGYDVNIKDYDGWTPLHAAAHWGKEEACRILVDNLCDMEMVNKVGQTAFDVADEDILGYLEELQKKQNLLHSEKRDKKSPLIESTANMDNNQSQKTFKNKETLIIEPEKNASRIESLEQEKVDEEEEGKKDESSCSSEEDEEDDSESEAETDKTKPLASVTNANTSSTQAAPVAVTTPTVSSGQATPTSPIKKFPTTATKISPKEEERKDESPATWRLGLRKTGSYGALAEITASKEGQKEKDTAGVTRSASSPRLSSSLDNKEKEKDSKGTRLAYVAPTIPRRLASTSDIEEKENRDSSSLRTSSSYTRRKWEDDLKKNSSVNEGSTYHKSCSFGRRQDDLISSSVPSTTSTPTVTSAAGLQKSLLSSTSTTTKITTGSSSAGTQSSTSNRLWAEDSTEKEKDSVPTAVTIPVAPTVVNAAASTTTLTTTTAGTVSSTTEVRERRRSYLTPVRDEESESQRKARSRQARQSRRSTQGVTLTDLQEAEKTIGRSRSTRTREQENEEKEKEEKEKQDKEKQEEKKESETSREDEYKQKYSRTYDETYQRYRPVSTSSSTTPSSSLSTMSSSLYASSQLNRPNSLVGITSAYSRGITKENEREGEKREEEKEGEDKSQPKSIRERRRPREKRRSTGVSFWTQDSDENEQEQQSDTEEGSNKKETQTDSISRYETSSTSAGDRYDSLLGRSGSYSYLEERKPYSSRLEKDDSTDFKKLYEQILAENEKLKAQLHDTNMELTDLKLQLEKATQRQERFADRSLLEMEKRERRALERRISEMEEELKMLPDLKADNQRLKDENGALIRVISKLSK
UniProt P27694: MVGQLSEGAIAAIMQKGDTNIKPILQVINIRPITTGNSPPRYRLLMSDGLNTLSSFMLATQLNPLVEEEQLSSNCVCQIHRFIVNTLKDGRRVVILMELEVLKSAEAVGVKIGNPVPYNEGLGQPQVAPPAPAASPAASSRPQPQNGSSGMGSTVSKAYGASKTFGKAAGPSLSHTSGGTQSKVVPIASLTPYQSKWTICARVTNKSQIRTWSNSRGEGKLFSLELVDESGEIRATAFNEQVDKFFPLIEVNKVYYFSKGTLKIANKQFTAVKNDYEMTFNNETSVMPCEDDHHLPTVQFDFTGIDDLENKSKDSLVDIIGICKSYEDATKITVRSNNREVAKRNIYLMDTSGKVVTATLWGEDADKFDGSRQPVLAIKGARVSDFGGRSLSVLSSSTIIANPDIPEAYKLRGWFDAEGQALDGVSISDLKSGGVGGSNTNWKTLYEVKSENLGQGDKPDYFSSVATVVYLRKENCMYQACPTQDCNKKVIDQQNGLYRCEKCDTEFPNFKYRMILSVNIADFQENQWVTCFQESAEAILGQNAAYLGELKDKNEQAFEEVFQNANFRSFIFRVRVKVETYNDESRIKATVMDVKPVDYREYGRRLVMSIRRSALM
UniProt O14744: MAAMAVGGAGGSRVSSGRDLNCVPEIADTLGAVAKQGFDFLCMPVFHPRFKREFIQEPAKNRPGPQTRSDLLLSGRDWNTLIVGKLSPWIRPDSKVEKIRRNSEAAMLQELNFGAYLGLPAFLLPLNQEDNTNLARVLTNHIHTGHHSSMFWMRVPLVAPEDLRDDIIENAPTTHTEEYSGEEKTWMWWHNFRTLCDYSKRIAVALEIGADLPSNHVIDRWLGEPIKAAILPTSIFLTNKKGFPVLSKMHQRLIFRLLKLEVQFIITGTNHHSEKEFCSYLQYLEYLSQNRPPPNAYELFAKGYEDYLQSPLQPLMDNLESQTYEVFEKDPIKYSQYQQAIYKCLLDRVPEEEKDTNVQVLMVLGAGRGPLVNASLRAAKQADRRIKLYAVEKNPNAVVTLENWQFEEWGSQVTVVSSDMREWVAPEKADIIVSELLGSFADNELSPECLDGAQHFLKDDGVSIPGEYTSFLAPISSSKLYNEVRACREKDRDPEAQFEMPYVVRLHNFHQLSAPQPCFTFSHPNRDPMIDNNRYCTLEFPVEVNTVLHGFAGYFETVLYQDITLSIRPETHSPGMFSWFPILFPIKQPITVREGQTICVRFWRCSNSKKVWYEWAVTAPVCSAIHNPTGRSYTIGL
UniProt P52732: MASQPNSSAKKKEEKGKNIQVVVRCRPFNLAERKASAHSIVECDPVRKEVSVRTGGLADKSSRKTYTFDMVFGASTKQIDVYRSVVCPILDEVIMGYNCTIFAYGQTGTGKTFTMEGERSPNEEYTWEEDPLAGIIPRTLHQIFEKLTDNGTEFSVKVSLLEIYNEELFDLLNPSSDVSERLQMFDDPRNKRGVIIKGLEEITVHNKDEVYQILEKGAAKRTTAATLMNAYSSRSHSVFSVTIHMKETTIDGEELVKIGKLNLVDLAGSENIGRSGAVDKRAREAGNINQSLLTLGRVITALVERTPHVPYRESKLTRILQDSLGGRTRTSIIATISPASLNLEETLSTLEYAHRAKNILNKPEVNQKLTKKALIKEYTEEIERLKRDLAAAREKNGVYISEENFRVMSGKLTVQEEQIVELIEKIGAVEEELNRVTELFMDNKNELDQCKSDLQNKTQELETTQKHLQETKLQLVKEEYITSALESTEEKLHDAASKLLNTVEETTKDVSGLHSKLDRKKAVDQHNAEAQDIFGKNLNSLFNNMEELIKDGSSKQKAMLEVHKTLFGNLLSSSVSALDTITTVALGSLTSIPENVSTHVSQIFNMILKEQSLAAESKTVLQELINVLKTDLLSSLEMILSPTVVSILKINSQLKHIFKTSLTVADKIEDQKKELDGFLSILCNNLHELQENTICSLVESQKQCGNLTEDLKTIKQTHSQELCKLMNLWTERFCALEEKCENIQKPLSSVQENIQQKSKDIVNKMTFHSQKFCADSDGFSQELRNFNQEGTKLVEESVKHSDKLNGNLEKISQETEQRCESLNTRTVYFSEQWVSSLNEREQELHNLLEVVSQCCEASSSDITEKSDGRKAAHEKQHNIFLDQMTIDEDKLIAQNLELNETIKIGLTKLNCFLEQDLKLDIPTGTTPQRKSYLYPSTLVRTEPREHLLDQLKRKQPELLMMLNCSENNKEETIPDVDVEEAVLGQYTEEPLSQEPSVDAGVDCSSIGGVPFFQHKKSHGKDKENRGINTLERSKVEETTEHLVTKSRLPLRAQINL
Heterogeneous nuclear ribonucleoprotein A2/B1 isoform A2 (P22626-2, form named): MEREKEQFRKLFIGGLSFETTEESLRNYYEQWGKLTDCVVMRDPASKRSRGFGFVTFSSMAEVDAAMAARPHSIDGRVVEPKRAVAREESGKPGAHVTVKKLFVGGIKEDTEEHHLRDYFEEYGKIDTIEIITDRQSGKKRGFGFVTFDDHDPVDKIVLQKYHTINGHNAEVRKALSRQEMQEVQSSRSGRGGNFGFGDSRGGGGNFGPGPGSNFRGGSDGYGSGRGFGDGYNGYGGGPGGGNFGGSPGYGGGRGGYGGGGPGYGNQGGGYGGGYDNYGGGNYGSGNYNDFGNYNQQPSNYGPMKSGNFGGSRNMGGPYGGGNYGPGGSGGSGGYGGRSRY
UniProt Q99459: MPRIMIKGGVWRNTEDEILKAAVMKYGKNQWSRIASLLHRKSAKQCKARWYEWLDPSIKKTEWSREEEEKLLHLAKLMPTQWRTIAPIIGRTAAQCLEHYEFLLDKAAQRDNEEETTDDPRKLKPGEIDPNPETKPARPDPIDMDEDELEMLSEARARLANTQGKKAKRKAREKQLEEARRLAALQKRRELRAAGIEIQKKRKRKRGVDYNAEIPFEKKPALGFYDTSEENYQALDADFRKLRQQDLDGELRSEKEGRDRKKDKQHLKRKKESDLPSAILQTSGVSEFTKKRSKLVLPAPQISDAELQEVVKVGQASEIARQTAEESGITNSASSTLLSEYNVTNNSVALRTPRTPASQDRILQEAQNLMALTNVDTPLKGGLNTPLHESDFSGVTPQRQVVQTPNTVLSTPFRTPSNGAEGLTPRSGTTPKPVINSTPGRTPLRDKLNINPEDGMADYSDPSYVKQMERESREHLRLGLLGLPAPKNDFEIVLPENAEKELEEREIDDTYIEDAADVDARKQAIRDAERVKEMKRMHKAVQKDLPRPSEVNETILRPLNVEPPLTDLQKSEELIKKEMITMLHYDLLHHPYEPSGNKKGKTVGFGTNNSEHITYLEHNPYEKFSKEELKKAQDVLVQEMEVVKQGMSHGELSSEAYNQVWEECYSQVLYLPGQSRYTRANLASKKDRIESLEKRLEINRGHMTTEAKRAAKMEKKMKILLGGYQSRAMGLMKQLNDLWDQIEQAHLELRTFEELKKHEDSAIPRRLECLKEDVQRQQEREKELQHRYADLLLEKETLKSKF
UniProt Q01844: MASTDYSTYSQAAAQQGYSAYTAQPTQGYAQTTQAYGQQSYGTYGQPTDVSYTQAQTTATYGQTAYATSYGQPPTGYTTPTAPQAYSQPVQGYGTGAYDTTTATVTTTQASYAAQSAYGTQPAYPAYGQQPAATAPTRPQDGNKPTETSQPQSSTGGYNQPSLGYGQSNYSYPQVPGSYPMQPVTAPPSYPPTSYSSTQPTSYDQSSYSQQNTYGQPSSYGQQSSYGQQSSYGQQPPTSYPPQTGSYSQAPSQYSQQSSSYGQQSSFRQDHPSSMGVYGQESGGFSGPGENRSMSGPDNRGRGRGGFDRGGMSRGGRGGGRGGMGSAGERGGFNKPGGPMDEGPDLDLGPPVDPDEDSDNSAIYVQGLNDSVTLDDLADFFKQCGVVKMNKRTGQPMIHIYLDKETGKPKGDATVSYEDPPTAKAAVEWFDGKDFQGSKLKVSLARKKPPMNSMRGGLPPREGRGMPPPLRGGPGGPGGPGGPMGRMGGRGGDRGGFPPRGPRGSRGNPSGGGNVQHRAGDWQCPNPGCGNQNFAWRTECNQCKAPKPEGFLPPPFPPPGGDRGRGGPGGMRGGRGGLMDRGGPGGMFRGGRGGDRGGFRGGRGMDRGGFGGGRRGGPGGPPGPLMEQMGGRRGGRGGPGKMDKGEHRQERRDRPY

Each molecule was assayed against Flag-tagged myosin phosphatase target subunit 1 (FT-MYPT1) (UniProt O14974) (assay: affinity purification with mass spectrometry; FT-MYPT1 bound to anti-Flag M2 affinity gel, incubated with precleared HepG2 nuclear extract for 2 hr at 4 °C, washed with TBS, eluted with 300 μg/ml Flag-peptide, SDS-PAGE, silver stain, in-gel trypsin digestion, LC-MS/MS; Flag-peptide as control; only the target purified).

binding, binds:
Replication protein A1 (from UniProt P27694 1-616)
Protein arginine methyltransferase 5 (PRMT5), endogenous in HepG2 (from UniProt O14744 1-637)
Kinesin family member 11 (from UniProt P52732 1-1056)
Heterogeneous nuclear ribonucleoprotein A2/B1 isoform A2 (from UniProt P22626-2 1-341)
CDC5-like protein (from UniProt Q99459 1-802)
Ewing sarcoma breakpoint region 1 isoform 2 (from UniProt Q01844 1-656)
B1
B2

Source: paper PMC5225440
